Measurements reported in the supplement of paper PMC4604168 (melanoma cell lines).
Some of the results follow. Repeats are few or missing, and single values can be far off.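 Imaging used 1,536-well plates; nuclei positive for cleaved PARP by antibody were divided by total DNA-stained nuclei to yield the apoptosis fraction. Doses for screening kept most cells viable, and cell lines differ markedly in resting and induced cleaved-PARP levels.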

test system: WM3619; experiment: cleaved PARP positive nuclei fraction relative to DMSO control; melanoma cells; higher = more apoptosis; settings: library dose: low library concentration; 72 h

Row | SMILES | cleaved PARP positive nuclei fraction
1 | CO[C@H]1C[C@@H]2CC[C@@H](C)[C@@](O)(O2)C(=O)C(=O)N2CCCC[C@H]2C(=O)O[C@H]([C@H](C)C[C@@H]2CC[C@@H](OCCO)[C@H](OC)C2)CC(=O)[C@H](C)/C=C(\C)[C@@H](O)[C@@H](OC)C(=O)[C@H](C)C[C@H](C)/C=C/C=C/C=C/1C [everolimus] + Clc1ccc(Nc2nnc(Cc3ccncc3)c3ccccc23)cc1 [vatalanib] (first compound 0.02 µM, partner dose 2 µM) | 134%
2 | CO[C@H]1C[C@@H]2CC[C@@H](C)[C@@](O)(O2)C(=O)C(=O)N2CCCC[C@H]2C(=O)O[C@H]([C@H](C)C[C@@H]2CC[C@@H](OCCO)[C@H](OC)C2)CC(=O)[C@H](C)/C=C(\C)[C@@H](O)[C@@H](OC)C(=O)[C@H](C)C[C@H](C)/C=C/C=C/C=C/1C [everolimus] + O=C(O)c1ccc2c(c1)nc(Nc1cccc(Cl)c1)c1ccncc12 [CX4945] (first compound 0.02 µM, partner dose 0.4 µM) | 119%
3 | CO[C@H]1C[C@@H]2CC[C@@H](C)[C@@](O)(O2)C(=O)C(=O)N2CCCC[C@H]2C(=O)O[C@H]([C@H](C)C[C@@H]2CC[C@@H](OCCO)[C@H](OC)C2)CC(=O)[C@H](C)/C=C(\C)[C@@H](O)[C@@H](OC)C(=O)[C@H](C)C[C@H](C)/C=C/C=C/C=C/1C [everolimus] + CNC(=O)c1cc(Oc2ccc(NC(=O)Nc3ccc(Cl)c(C(F)(F)F)c3)cc2)ccn1 [sorafenib] (first compound 0.02 µM, partner dose 0.4 µM) | 116%

test system: WM451Lu; experiment: as above; settings: library dose: low library concentration; 72 h

Row | SMILES | cleaved PARP positive nuclei fraction
4 | CO[C@H]1C[C@@H]2CC[C@@H](C)[C@@](O)(O2)C(=O)C(=O)N2CCCC[C@H]2C(=O)O[C@H]([C@H](C)C[C@@H]2CC[C@@H](OCCO)[C@H](OC)C2)CC(=O)[C@H](C)/C=C(\C)[C@@H](O)[C@@H](OC)C(=O)[C@H](C)C[C@H](C)/C=C/C=C/C=C/1C [everolimus] + c1cc(-c2cnn3cc(-c4ccc(OCCN5CCCCC5)cc4)cnc23)ccn1 [Dorsomorphin] (first compound 0.02 µM, partner dose 0.4 µM) | 44.8%
5 | Cn1c(=O)n(-c2ccc(C(C)(C)C#N)cc2)c2c3cc(-c4cnc5ccccc5c4)ccc3ncc21 + CO[C@H]1C[C@@H]2CC[C@@H](C)[C@@](O)(O2)C(=O)C(=O)N2CCCC[C@H]2C(=O)O[C@H]([C@H](C)C[C@@H]2CC[C@@H](OCCO)[C@H](OC)C2)CC(=O)[C@H](C)/C=C(\C)[C@@H](O)[C@@H](OC)C(=O)[C@H](C)C[C@H](C)/C=C/C=C/C=C/1C [everolimus] (first compound 0.004 µM, partner dose 0.02 µM) | 122%
6 | C[C@@H](Oc1cc(-c2cnn(C3CCNCC3)c2)cnc1N)c1c(Cl)ccc(F)c1Cl [Crizotinib] + CNC(=O)c1cc(Oc2ccc(NC(=O)Nc3ccc(Cl)c(C(F)(F)F)c3)cc2)ccn1 [sorafenib] (first compound 0.2 µM, partner dose 0.4 µM) | 79.8%
7 | CO[C@H]1C[C@@H]2CC[C@@H](C)[C@@](O)(O2)C(=O)C(=O)N2CCCC[C@H]2C(=O)O[C@H]([C@H](C)C[C@@H]2CC[C@@H](OCCO)[C@H](OC)C2)CC(=O)[C@H](C)/C=C(\C)[C@@H](O)[C@@H](OC)C(=O)[C@H](C)C[C@H](C)/C=C/C=C/C=C/1C [everolimus] + O=C(Nc1cccc(Cl)c1)Nc1ncc(CCNc2ncnc3ccsc23)s1 [SNS314] (first compound 0.02 µM, partner dose 0.0008 µM) | 157%
8 | CO[C@H]1C[C@@H]2CC[C@@H](C)[C@@](O)(O2)C(=O)C(=O)N2CCCC[C@H]2C(=O)O[C@H]([C@H](C)C[C@@H]2CC[C@@H](OCCO)[C@H](OC)C2)CC(=O)[C@H](C)/C=C(\C)[C@@H](O)[C@@H](OC)C(=O)[C@H](C)C[C@H](C)/C=C/C=C/C=C/1C [everolimus] + Oc1nc(-c2ccc(C(F)(F)F)cc2)nc2c1CSCC2 [XAV939] (first compound 0.02 µM, partner dose 2 µM) | 63.3%
9 | CO[C@H]1C[C@@H]2CC[C@@H](C)[C@@](O)(O2)C(=O)C(=O)N2CCCC[C@H]2C(=O)O[C@H]([C@H](C)C[C@@H]2CC[C@@H](OCCO)[C@H](OC)C2)CC(=O)[C@H](C)/C=C(\C)[C@@H](O)[C@@H](OC)C(=O)[C@H](C)C[C@H](C)/C=C/C=C/C=C/1C [everolimus] + Cc1nc(Nc2ncc(C(=O)Nc3c(C)cccc3Cl)s2)cc(N2CCN(CCO)CC2)n1 [dasatanib] (first compound 0.02 µM, partner dose 0.004 µM) | 108%
10 | CO[C@H]1C[C@@H]2CC[C@@H](C)[C@@](O)(O2)C(=O)C(=O)N2CCCC[C@H]2C(=O)O[C@H]([C@H](C)C[C@@H]2CC[C@@H](OCCO)[C@H](OC)C2)CC(=O)[C@H](C)/C=C(\C)[C@@H](O)[C@@H](OC)C(=O)[C@H](C)C[C@H](C)/C=C/C=C/C=C/1C [everolimus] + CC1(C)NC(=O)N(c2ccc([N+](=O)[O-])c(C(F)(F)F)c2)C1=O [nilutamide] (first compound 0.02 µM, partner dose 1 µM) | 122%
11 | CO[C@H]1C[C@@H]2CC[C@@H](C)[C@@](O)(O2)C(=O)C(=O)N2CCCC[C@H]2C(=O)O[C@H]([C@H](C)C[C@@H]2CC[C@@H](OCCO)[C@H](OC)C2)CC(=O)[C@H](C)/C=C(\C)[C@@H](O)[C@@H](OC)C(=O)[C@H](C)C[C@H](C)/C=C/C=C/C=C/1C [everolimus] + Nc1cccc2c1CN(C1CCC(=O)NC1=O)C2=O [lenalidomide] (first compound 0.02 µM, partner dose 1 µM) | 56.9%
12 | CO[C@H]1C[C@@H]2CC[C@@H](C)[C@@](O)(O2)C(=O)C(=O)N2CCCC[C@H]2C(=O)O[C@H]([C@H](C)C[C@@H]2CC[C@@H](OCCO)[C@H](OC)C2)CC(=O)[C@H](C)/C=C(\C)[C@@H](O)[C@@H](OC)C(=O)[C@H](C)C[C@H](C)/C=C/C=C/C=C/1C [everolimus] + Nc1nc(F)nc2c1ncn2[C@@H]1O[C@H](CO)[C@@H](O)[C@@H]1O [fludarabine] (first compound 0.02 µM, partner dose 0.2 µM) | 207%
13 | CO[C@H]1C[C@@H]2CC[C@@H](C)[C@@](O)(O2)C(=O)C(=O)N2CCCC[C@H]2C(=O)O[C@H]([C@H](C)C[C@@H]2CC[C@@H](OCCO)[C@H](OC)C2)CC(=O)[C@H](C)/C=C(\C)[C@@H](O)[C@@H](OC)C(=O)[C@H](C)C[C@H](C)/C=C/C=C/C=C/1C [everolimus] + C=CCn1c(=O)c2cnc(Nc3ccc(N4CCN(C)CC4)cc3)nc2n1-c1cccc(C(C)(C)O)n1 [MK1775] (first compound 0.02 µM, partner dose 0.02 µM) | 233%
14 | CO[C@H]1C[C@@H]2CC[C@@H](C)[C@@](O)(O2)C(=O)C(=O)N2CCCC[C@H]2C(=O)O[C@H]([C@H](C)C[C@@H]2CC[C@@H](OCCO)[C@H](OC)C2)CC(=O)[C@H](C)/C=C(\C)[C@@H](O)[C@@H](OC)C(=O)[C@H](C)C[C@H](C)/C=C/C=C/C=C/1C [everolimus] + Nc1ncn([C@H]2C[C@H](O)[C@@H](CO)O2)c(=O)n1 [decitabine] (first compound 0.02 µM, partner dose 0.1 µM) | 98.2%
15 | CO[C@H]1C[C@@H]2CC[C@@H](C)[C@@](O)(O2)C(=O)C(=O)N2CCCC[C@H]2C(=O)O[C@H]([C@H](C)C[C@@H]2CC[C@@H](OCCO)[C@H](OC)C2)CC(=O)[C@H](C)/C=C(\C)[C@@H](O)[C@@H](OC)C(=O)[C@H](C)C[C@H](C)/C=C/C=C/C=C/1C [everolimus] + CC(C)(C)c1cnc(CSc2cnc(NC(=O)C3CCNCC3)s2)o1 [SNS-032] (first compound 0.02 µM, partner dose 0.01 µM) | 185%
16 | CO[C@H]1C[C@@H]2CC[C@@H](C)[C@@](O)(O2)C(=O)C(=O)N2CCCC[C@H]2C(=O)O[C@H]([C@H](C)C[C@@H]2CC[C@@H](OCCO)[C@H](OC)C2)CC(=O)[C@H](C)/C=C(\C)[C@@H](O)[C@@H](OC)C(=O)[C@H](C)C[C@H](C)/C=C/C=C/C=C/1C [everolimus] + Cc1cc([N+](=O)[O-])ccc1NS(=O)(=O)c1cc(Cl)ccc1Cl [FH535] (first compound 0.02 µM, partner dose 1 µM) | 40.6%
17 | CO[C@H]1C[C@@H]2CC[C@@H](C)[C@@](O)(O2)C(=O)C(=O)N2CCCC[C@H]2C(=O)O[C@H]([C@H](C)C[C@@H]2CC[C@@H](OCCO)[C@H](OC)C2)CC(=O)[C@H](C)/C=C(\C)[C@@H](O)[C@@H](OC)C(=O)[C@H](C)C[C@H](C)/C=C/C=C/C=C/1C [everolimus] + O=C(O)c1ccc(-c2c[nH]c3ncc(-c4ccccc4)cc23)cc1C1CCCC1 [GSK650394] (first compound 0.02 µM, partner dose 0.16 µM) | 84.2%
18 | CO[C@H]1C[C@@H]2CC[C@@H](C)[C@@](O)(O2)C(=O)C(=O)N2CCCC[C@H]2C(=O)O[C@H]([C@H](C)C[C@@H]2CC[C@@H](OCCO)[C@H](OC)C2)CC(=O)[C@H](C)/C=C(\C)[C@@H](O)[C@@H](OC)C(=O)[C@H](C)C[C@H](C)/C=C/C=C/C=C/1C [everolimus] + COc1ccc(COc2ccc(Cc3cnc(N)nc3N)cc2OC)cc1 [GW2580] (first compound 0.02 µM, partner dose 1 µM) | 76.6%

Two consecutive entries out of the list so far:
Row | SMILES | cleaved PARP positive nuclei fraction
5 | Cn1c(=O)n(-c2ccc(C(C)(C)C#N)cc2)c2c3cc(-c4cnc5ccccc5c4)ccc3ncc21 + CO[C@H]1C[C@@H]2CC[C@@H](C)[C@@](O)(O2)C(=O)C(=O)N2CCCC[C@H]2C(=O)O[C@H]([C@H](C)C[C@@H]2CC[C@@H](OCCO)[C@H](OC)C2)CC(=O)[C@H](C)/C=C(\C)[C@@H](O)[C@@H](OC)C(=O)[C@H](C)C[C@H](C)/C=C/C=C/C=C/1C [everolimus] (first compound 0.004 µM, partner dose 0.02 µM) | 122%
6 | C[C@@H](Oc1cc(-c2cnn(C3CCNCC3)c2)cnc1N)c1c(Cl)ccc(F)c1Cl [Crizotinib] + CNC(=O)c1cc(Oc2ccc(NC(=O)Nc3ccc(Cl)c(C(F)(F)F)c3)cc2)ccn1 [sorafenib] (first compound 0.2 µM, partner dose 0.4 µM) | 79.8%
